Measurements as given in article PMC7698808.
No constants are given. Whether binding was seen depends on the method and setting.

Tests used:
[1] = target: human metallocarboxypeptidase Z without the N-terminal Fz domain, recombinant form CPZΔFz (residues 186-623) (human) (UniProt Q66K79); experiment: SEC; last purification step; HiLoad Superdex 75 26/60 column, 50 mM Tris-HCl, pH 7.5, 150 mM NaCl; both purified
[2] = target: human metallocarboxypeptidase Z, recombinant form CPZ (residues 19-623) (human) (UniProt Q66K79); experiment: as above

| binding [1] | binding [2] | Binder |
| --- | --- | --- |
| no binding |  | human metallocarboxypeptidase Z without the N-terminal Fz domain, recombinant form CPZΔFz (residues 186-623) (domain or fragment, UniProt Q66K79 186-623) SHHSYAQMVRVLRRTASRCAHVARTYSIGRSFDGRELLVIEFSSRPGQHELMEPEVKLIGNIHGNEVAGREMLIYLAQYLCSEYLLGNPRIQRLLNTTRIHLLPSMNPDGYEVAAAEGAGYNGWTSGRQNAQNLDLNRNFPDLTSEYYRLAETRGARSDHIPIPQHYWWGKVAPETKAIMKWMQTIPFVLSASLHGGDLVVSYPFDFSKHPQEEKMFSPTPDEKMFKLLSRAYADVHPMMMDRSENRCGGNFLKRGSIINGADWYSFTGGMSDFNYLHTNCFEITVELGCVKFPPEEALYILWQHNKESLLNFVETVHRGIKGVVTDKFGKPVKNARISVKGIRHDITTAPDGDYWRLLPPGIHIVIAQAPGYAKVIKKVIIPARMKRAGRVDFILQPLGMGPKNFIHGLRRTGPHDPLGGASSLGEATEPDPLRARR |
|  | no binding | human metallocarboxypeptidase Z, recombinant form CPZ (residues 19-623) (enzyme, UniProt Q66K79 19-623) RPGCEFERNPAGECHRPPAADSATCVDLQLRTCSDAAYNHTTFPNLLQHRSWEVVEASSEYILLSVLHQLLEGQCNPDLRLLGCAVLAPRCEGGWVRRPCRHICEGLREVCQPAFDAIDMAWPYFLDCHRYFTREDEGCYDPLEKLRGGLEADEALPSGLPPTFIRFSHHSYAQMVRVLRRTASRCAHVARTYSIGRSFDGRELLVIEFSSRPGQHELMEPEVKLIGNIHGNEVAGREMLIYLAQYLCSEYLLGNPRIQRLLNTTRIHLLPSMNPDGYEVAAAEGAGYNGWTSGRQNAQNLDLNRNFPDLTSEYYRLAETRGARSDHIPIPQHYWWGKVAPETKAIMKWMQTIPFVLSASLHGGDLVVSYPFDFSKHPQEEKMFSPTPDEKMFKLLSRAYADVHPMMMDRSENRCGGNFLKRGSIINGADWYSFTGGMSDFNYLHTNCFEITVELGCVKFPPEEALYILWQHNKESLLNFVETVHRGIKGVVTDKFGKPVKNARISVKGIRHDITTAPDGDYWRLLPPGIHIVIAQAPGYAKVIKKVIIPARMKRAGRVDFILQPLGMGPKNFIHGLRRTGPHDPLGGASSLGEATEPDPLRARR |
